Laboratory results as given in the supplement of paper PMC6411743.
± gives the standard deviation of the averaged measurements. Only a part is listed here, and it is no random draw. Most entries show no effect beyond the scatter of the controls.

Chains of the proteins cited; added tags and fusions are not shown. Lines headed by an entry give the natural chain unless they say otherwise; changes in a name come on top.
UniProt O43633: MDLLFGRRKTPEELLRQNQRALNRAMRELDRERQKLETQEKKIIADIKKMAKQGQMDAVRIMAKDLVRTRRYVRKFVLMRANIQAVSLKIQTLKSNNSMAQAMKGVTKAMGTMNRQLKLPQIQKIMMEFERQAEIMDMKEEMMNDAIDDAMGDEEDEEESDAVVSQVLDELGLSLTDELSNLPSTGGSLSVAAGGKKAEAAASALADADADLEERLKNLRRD
UniProt O15228: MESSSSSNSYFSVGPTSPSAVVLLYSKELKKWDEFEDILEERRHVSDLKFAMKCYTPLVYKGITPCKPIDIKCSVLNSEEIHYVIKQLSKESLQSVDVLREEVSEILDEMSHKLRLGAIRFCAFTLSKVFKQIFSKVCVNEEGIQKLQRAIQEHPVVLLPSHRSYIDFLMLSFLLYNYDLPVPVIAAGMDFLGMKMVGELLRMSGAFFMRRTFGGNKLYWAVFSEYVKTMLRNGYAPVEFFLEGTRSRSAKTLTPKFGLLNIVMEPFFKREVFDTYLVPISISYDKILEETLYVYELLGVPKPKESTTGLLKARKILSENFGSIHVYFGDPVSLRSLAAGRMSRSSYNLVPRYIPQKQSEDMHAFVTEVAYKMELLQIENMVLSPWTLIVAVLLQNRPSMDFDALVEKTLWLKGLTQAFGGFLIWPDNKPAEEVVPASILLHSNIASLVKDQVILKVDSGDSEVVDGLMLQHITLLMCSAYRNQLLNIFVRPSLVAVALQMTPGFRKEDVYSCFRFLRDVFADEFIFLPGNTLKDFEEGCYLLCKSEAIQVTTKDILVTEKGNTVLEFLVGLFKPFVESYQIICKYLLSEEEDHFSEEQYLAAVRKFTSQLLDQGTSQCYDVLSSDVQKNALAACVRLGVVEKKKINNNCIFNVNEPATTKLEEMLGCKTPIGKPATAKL
UniProt O14744, whole entry: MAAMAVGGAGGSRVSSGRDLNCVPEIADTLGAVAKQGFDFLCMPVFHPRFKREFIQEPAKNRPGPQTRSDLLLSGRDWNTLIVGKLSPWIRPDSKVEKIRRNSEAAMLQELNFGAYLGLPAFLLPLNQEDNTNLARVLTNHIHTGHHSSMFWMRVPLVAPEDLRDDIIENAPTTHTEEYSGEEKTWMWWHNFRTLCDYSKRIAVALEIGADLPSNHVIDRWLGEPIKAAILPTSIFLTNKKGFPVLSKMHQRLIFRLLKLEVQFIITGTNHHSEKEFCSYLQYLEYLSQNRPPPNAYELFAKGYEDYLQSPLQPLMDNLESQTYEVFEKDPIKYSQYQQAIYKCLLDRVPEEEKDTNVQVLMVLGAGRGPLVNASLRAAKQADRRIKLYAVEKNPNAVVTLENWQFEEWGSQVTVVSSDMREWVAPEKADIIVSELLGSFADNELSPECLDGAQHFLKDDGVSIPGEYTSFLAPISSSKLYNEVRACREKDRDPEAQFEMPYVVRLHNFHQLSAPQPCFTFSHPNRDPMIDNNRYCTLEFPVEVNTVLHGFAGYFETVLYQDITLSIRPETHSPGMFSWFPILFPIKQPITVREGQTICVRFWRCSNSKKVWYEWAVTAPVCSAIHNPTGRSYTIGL
UniProt O43159: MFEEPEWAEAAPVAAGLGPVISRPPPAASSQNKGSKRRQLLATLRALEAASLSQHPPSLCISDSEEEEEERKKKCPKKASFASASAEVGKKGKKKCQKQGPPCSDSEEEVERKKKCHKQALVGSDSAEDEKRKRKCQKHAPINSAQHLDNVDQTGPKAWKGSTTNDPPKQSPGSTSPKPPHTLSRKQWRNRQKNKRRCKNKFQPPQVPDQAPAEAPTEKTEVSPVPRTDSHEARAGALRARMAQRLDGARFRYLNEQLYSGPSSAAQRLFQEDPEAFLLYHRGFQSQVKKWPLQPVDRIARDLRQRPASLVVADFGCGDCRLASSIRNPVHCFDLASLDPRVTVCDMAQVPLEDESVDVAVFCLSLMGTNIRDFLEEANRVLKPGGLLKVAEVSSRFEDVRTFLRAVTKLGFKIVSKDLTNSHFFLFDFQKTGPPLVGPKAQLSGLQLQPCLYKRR
UniProt O14907: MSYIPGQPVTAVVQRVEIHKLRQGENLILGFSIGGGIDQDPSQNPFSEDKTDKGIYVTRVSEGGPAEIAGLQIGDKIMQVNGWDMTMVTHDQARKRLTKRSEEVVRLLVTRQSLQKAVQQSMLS
UniProt O00217, whole entry: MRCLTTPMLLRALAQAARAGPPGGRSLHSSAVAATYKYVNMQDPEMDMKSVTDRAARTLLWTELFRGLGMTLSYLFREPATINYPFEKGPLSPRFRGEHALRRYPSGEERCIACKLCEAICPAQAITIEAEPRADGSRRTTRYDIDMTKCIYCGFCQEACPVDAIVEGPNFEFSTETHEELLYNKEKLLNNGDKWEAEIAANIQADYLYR
UniProt O00410: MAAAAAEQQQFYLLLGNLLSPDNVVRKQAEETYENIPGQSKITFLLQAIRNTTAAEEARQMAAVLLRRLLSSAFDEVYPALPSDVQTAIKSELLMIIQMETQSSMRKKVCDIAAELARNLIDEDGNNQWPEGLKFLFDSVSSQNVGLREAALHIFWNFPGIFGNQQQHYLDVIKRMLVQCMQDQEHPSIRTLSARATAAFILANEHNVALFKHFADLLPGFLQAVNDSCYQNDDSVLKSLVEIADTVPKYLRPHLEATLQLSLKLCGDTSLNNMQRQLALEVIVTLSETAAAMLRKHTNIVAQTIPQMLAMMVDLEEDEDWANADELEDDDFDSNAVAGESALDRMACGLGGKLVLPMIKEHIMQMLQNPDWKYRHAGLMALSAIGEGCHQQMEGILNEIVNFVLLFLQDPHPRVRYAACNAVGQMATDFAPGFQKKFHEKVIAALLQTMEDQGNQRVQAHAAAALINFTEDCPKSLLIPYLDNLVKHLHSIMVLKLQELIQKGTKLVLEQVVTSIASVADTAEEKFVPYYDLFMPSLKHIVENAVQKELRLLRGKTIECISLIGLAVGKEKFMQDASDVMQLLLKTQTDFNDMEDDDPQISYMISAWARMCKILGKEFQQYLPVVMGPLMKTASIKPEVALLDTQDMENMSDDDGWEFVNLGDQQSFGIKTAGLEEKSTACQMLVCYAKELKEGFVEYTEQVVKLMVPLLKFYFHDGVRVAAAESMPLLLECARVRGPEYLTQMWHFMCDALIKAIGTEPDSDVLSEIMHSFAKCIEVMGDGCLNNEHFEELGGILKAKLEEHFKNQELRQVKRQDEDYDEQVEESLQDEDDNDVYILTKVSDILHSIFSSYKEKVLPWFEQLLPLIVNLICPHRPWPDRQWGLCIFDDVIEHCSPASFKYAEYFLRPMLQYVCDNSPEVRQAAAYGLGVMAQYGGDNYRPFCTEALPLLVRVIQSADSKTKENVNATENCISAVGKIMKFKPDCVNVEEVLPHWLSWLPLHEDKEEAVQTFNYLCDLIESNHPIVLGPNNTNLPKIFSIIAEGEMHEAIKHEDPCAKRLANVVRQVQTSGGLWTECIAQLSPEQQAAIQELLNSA
UniProt O43719: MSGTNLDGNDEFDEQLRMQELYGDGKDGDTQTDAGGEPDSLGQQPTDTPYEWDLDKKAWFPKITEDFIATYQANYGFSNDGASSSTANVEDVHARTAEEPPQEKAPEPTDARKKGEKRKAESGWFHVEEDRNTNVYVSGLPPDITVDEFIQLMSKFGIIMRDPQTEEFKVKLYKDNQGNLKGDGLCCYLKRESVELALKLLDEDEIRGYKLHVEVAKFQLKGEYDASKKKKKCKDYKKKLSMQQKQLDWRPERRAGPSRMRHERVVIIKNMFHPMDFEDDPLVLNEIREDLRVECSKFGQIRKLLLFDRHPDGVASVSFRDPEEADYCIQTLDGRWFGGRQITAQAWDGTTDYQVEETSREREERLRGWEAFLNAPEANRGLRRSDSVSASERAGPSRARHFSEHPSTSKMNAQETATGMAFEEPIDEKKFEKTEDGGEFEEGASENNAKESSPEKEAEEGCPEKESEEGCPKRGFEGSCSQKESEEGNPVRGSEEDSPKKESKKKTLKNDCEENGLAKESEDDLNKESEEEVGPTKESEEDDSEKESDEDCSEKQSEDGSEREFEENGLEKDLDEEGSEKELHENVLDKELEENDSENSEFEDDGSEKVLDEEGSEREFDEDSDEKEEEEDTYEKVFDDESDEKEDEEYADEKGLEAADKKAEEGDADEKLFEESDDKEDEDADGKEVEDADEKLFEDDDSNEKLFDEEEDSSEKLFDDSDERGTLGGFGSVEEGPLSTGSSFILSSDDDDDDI
UniProt O15123: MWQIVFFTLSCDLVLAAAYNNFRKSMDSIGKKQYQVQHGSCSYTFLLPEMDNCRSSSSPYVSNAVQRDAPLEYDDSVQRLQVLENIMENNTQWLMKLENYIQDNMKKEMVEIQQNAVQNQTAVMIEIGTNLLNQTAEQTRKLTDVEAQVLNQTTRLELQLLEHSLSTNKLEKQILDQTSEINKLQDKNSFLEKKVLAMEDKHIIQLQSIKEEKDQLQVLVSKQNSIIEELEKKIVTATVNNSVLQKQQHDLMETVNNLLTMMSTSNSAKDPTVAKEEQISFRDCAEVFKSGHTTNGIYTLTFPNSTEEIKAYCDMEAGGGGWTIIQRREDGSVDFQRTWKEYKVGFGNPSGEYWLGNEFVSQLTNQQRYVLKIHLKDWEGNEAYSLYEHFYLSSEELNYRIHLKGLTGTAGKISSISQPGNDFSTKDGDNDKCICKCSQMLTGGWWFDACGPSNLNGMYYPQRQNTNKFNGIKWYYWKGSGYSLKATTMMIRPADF
UniProt O00399, whole entry: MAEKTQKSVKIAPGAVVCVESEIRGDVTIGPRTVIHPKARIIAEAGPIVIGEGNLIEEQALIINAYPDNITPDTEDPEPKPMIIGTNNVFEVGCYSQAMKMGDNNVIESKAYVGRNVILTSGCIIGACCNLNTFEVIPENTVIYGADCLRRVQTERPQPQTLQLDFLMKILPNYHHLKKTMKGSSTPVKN
UniProt O43929: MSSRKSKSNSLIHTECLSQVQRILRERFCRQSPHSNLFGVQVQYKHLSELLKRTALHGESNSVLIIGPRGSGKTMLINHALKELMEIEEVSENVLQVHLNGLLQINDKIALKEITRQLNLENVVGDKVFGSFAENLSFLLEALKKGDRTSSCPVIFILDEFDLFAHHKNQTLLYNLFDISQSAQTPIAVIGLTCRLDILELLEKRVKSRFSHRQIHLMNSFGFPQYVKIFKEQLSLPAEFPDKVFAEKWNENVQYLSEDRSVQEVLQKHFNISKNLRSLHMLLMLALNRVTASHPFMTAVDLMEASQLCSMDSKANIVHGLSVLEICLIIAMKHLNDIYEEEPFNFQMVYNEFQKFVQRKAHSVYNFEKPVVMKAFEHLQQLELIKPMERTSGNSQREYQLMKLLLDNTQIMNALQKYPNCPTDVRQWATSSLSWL
UniProt O43292: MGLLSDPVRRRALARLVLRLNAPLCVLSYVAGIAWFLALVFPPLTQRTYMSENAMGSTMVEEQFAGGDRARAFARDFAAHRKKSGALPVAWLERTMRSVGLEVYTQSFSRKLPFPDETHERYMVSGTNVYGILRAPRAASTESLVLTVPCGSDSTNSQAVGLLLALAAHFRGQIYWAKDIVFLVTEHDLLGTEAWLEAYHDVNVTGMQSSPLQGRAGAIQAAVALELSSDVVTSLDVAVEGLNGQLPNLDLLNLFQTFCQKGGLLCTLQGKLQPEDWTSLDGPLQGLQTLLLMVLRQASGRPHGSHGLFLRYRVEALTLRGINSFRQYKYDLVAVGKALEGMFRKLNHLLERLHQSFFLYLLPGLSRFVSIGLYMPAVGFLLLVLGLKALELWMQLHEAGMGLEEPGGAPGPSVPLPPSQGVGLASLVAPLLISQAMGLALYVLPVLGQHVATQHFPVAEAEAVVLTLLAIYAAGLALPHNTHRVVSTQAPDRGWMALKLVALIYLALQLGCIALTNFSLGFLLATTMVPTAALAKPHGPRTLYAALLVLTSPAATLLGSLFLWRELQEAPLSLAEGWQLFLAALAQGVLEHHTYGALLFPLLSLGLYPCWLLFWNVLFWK
UniProt O00400: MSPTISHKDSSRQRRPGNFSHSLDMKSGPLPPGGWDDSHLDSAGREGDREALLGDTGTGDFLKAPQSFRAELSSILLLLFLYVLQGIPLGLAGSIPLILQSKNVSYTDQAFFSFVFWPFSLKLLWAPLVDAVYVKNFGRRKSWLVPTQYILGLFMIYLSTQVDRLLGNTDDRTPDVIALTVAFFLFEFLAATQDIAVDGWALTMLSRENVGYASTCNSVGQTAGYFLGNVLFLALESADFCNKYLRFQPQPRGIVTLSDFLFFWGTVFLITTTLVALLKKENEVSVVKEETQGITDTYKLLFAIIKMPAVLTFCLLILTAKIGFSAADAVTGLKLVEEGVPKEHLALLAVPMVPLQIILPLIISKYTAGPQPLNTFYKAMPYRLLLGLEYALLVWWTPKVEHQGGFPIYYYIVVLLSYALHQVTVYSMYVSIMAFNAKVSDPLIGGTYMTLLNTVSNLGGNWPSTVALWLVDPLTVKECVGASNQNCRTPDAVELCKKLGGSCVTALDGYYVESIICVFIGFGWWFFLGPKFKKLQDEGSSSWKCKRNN

Compound: Nc1ncnc2c1ncn2[C@@H]1O[C@H](COP(=O)(O)OP(=O)(O)OP(=O)(O)O)[C@@H](O)[C@H]1O [adenosine triphosphate]
Experiment: NP40-soluble protein abundance relative to vehicle (solubility fold change) (ratio); higher = more soluble protein in presence of ATP
Summary of the method: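 Data come from three independent experiments in which Dounce-homogenised Jurkat crude lysate was treated at eight concentrations from 0.1 to 10 mM. Treatment ran 10 min at room temperature and then 3 min at 37 °C, after which 0.8% NP40 and benzonase were added for 60 min at 4 °C before ultracentrifugation. The supernatant underwent TMT labelling and LC-MS/MS, and vsn-normalised intensities were expressed as fold change against the detergent-processed vehicle in each replicate.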

Row | Target | NP40-soluble protein abundance (concentration: 0.1mM) | NP40-soluble protein abundance (concentration: 0.5mM)
1 | CHMP2A (UniProt O43633) | 0.96 ± 0.051 | 0.929 ± 0.11
2 | GNPAT (UniProt O15228) | 1.04 ± 0.091 | 1.03 ± 0.08
3 | PRMT5 (UniProt O14744) | 1.02 ± 0.038 | 1.04 ± 0.038
4 | ZBTB24 (UniProt O43167) | 1.03 ± 0.028 | 1.06 ± 0.079
5 | UniProt O43159 | 0.966 ± 0.1 | 0.98 ± 0.1
6 | UniProt O43586 and related entries | 1.12 ± 0.051 | 1.09 ± 0.1
7 | TAX1BP3 (UniProt O14907) | 0.961 ± 0.046 | 0.967 ± 0.021
8 | UBFD1 (UniProt O14562) | 0.999 ± 0.046 | 0.958 ± 0.012
9 | POLRMT (UniProt O00411) | 1.03 ± 0.038 | 1.06 ± 0.15
10 | UniProt O00217 and related entries | 0.966 ± 0.016 | 0.979 ± 0.013
11 | UniProt O00410 and related entries | 0.983 ± 0.026 | 0.983 ± 0.025
12 | HTATSF1 (UniProt O43719) | 0.972 ± 0.036 | 1 ± 0.081
13 | UniProt O43704 | 0.967 ± 0.026 | 0.967 ± 0.027
14 | UniProt O60293 and related entries | 1.01 ± 0.031 | 1.05 ± 0.036
15 | UniProt O15123 and related entries | 0.935 ± 0.1 | 0.918 ± 0.071
16 | NCK2 (UniProt O43639) | 1.02 ± 0.021 | 0.993 ± 0.031
17 | KPNA4 (UniProt O00629) | 1.03 ± 0.047 | 1.07 ± 0.04
18 | DCTN6 (UniProt O00399) | 1 ± 0.041 | 1 ± 0.056
19 | UniProt O43929 | 1.07 ± 0.089 | 1.05 ± 0.11
20 | UniProt O43292 and related entries | 1.03 ± 0.1 | 0.96 ± 0.04
21 | SLC33A1 (UniProt O00400) | 1.07 ± 0.14 | 1.04 ± 0.11
22 | ADAM10 (UniProt O14672) | 1 ± 0.046 | 1.02 ± 0.052
23 | UniProt O00148 | 1.04 ± 0.042 | 1.04 ± 0.056

From no. 9 to 10, copied from above:
Row | Target | NP40-soluble protein abundance (concentration: 0.1mM) | NP40-soluble protein abundance (concentration: 0.5mM)
9 | POLRMT (UniProt O00411) | 1.03 ± 0.038 | 1.06 ± 0.15
10 | UniProt O00217 and related entries | 0.966 ± 0.016 | 0.979 ± 0.013
